From article doi:10.1101/2024.09.03.611033
Results are given in words; binding and its absence hold for the method and conditions named. In cells and extracts the contact can be indirect. Some entries that bind do so weakly or less than the wild type. Where a sequence is shown, tags or fusion partners need not be part of it.

Amino acid sequences for entries named in this document (tags omitted).
UniProt Q13148: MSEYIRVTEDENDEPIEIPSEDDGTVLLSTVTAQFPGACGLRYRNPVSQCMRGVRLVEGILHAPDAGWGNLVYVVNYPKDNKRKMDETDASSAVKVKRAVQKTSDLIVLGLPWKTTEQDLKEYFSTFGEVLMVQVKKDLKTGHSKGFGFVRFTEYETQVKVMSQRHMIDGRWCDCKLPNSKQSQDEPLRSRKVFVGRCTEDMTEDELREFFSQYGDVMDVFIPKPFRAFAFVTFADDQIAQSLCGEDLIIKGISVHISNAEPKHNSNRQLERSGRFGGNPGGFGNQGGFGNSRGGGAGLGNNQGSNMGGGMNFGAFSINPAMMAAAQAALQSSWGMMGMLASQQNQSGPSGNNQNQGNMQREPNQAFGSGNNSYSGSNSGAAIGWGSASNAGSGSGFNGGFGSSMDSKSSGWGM

Target: T1, GFP-tagged human gigaxonin (human) (UniProt Q9H2C0)
T1 sequence: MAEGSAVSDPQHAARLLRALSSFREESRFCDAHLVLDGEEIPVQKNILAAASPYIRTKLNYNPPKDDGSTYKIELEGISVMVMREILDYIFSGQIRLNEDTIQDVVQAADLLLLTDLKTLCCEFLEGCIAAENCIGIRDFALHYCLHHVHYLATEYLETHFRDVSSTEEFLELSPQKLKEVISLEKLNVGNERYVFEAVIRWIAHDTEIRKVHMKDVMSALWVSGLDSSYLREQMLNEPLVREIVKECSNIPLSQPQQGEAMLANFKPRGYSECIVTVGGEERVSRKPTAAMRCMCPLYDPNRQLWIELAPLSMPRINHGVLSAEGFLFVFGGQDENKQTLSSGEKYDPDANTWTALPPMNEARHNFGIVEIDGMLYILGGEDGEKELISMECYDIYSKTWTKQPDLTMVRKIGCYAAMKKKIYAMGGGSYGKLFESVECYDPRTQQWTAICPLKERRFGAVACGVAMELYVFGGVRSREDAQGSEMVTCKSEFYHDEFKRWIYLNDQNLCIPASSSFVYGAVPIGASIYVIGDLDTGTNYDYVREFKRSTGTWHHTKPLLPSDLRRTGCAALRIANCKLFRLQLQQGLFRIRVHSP
Assay: co-IP; GFP-Gig from TritonX-100-soluble HEK293 lysate captured on TurboGFP-Trap magnetic agarose beads overnight at 4°C; immunoblot for PCBP2 and TDP-43

Q: How did the binding turn out when “TAR DNA-binding protein 43 (from UniProt Q13148 1-414)” was run?
A: binds
